Measurements published in publication PMC3496707.
No constants are given. Whether binding was seen depends on the method and setting. A result given as binding can be weak or reduced; the word gives no strength. Where a sequence is shown, tags or fusion partners need not be part of it.

Target: 6xHis-tagged recombinant LC2 (light chain of MAP1A) (rat)
Experiment: far-Western, overlay or dot blot; MAP1 proteins fractionated by SDS-PAGE, blotted onto nitrocellulose, probed with 10–100 µg/ml recombinant α1-syntrophin in 0.25% Tween 20 in PBS with 2% BSA for 2 h; detected with anti-syn1351; both purified

binding: binds
B1: NH2-terminally 6xHis-tagged full length mouse α1-syntrophin (protein, UniProt Q61234 1-503)
chain: MASGRRAPRTGLLELRCGAGSGAGGERWQRVLLSLAEDALTVSPADGEPGPEPEPAQLNGAAEPGAAPPQLPEALLLQRRRVTVRKADAGGLGISIKGGRENKMPILISKIFKGLAADQTEALFVGDAILSVNGEDLSSATHDEAVQALKKTGKEVVLEVKYMKEVSPYFKNSAGGTSVGWDSPPASPLQRQPSSPGPQPRNLSEAKHVSLKMAYVSRRCTPTDPEPRYLEICAADGQDAVFLRAKDEASARSWAGAIQAQIGTFIPWVKDELQALLTATGTAGSQDIKQIGWLTEQLPSGGTAPTLALLTEKELLFYCSLPQSREALSRPTRTAPLIATSSAHRLVHSGPSKGSVPYDAELSFALRTGTRHGVDTHLFSVESPQELAAWTRQLVDGCHRAAEGIQEVSTACTWNGRPCSLSVHIDKGFTLWAAEPGAARAMLLRQPFEKLQMSSDDGTSLLFLDFGGAEGEIQLDLHSCPKTMVFIIHSFLSAKVTRLGLLA
modifications: Eu3+-labeled (in the microtiter plate assay only)
